Measurements reported in PubChem BioAssay AID1224830 (NIAID, 2016).
Here is a random part of about 18,000 reagents. About 2,900 of all reagents (16%) were called active. 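Calls are made per well; low scores hint the gene aids the LPS response, high scores that it dampens it.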 Entries without a mark were called inactive. Repeated entries: four replicate wells of each siRNA pool.

- Purpose: 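Genes whose knock-down alters the TNF-alpha reporter response to LPS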 (primary screen)
- Cell system: human THP-1 monocytic leukaemia cells, TNF dual-luciferase reporter clone, PMA-differentiated to macrophage-like cells
- Knock-down reagent: siRNA pool against human genes, 50 nM
- Time to read-out: LPS for 4 h, given about 3 days after siRNA transfection
- Treatment: bacterial LPS (TLR4 ligand), 10 ng/ml
- Measured: 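Ratio of firefly to renilla light, scaled to the plate median and expressed as a robust z-score per replicate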
- Reading the numbers: TNF reporter robust z-score: higher = stronger TNF reporter response to LPS
- Active means: 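Each well counts as active if its z-score is over 2.8 or under -1.5; controls are left without a call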

Silencing of TRAPPC10 (trafficking protein particle complex subunit 10) resulted in: TNF reporter robust z-score -0.25.
TRAPPC10 (trafficking protein particle complex subunit 10) showed TNF reporter robust z-score 0.9.
TRAPPC10 (trafficking protein particle complex subunit 10) gave TNF reporter robust z-score -0.16.
Depletion of TRAPPC10 (trafficking protein particle complex subunit 10) gave: TNF reporter robust z-score 0.13.
With knock-down of PDCD7 (programmed cell death 7), the screen gave TNF reporter robust z-score 0.27.
For PDCD7 (programmed cell death 7), the entry reads TNF reporter robust z-score 0.97.
Knock-down of PDCD7 (programmed cell death 7) came out at: TNF reporter robust z-score 0.4.
PDCD7 (programmed cell death 7) scored TNF reporter robust z-score -0.82.
For CINP (cyclin dependent kinase 2 interacting protein), the entry reads TNF reporter robust z-score -1.74 (active).
Against CINP (cyclin dependent kinase 2 interacting protein), the values are TNF reporter robust z-score -2.02 (active).
With knock-down of CINP (cyclin dependent kinase 2 interacting protein) the results were TNF reporter robust z-score -1.89 (active).
CINP (cyclin dependent kinase 2 interacting protein) scored TNF reporter robust z-score -1.94 (active).
Against DMAC1 (distal membrane arm assembly component 1), the values are TNF reporter robust z-score -0.42.
Against DMAC1 (distal membrane arm assembly component 1), the entry reads TNF reporter robust z-score -0.72.
With knock-down of DMAC1 (distal membrane arm assembly component 1), the record shows TNF reporter robust z-score -0.76.
Depletion of SND1 (staphylococcal nuclease and tudor domain containing 1) gave: TNF reporter robust z-score -0.23.
For SND1 (staphylococcal nuclease and tudor domain containing 1), the values are TNF reporter robust z-score 0.1.
After knock-down of SND1 (staphylococcal nuclease and tudor domain containing 1), the screen gave TNF reporter robust z-score 0.01.
C21orf58 (chromosome 21 open reading frame 58) gave TNF reporter robust z-score -0.97.
C21orf58 (chromosome 21 open reading frame 58) showed TNF reporter robust z-score -1.22.
With knock-down of C21orf58 (chromosome 21 open reading frame 58), the record shows TNF reporter robust z-score -0.92.
Depletion of C21orf58 (chromosome 21 open reading frame 58) gave: TNF reporter robust z-score -0.91.
KIF17 (kinesin family member 17) showed TNF reporter robust z-score 1.67.
For KIF17 (kinesin family member 17), the entry reads TNF reporter robust z-score 3.68 (active).
For KIF17 (kinesin family member 17) the deposit lists TNF reporter robust z-score 2.59.
Silencing of KIF17 (kinesin family member 17) resulted in: TNF reporter robust z-score 2.79.
After knock-down of PADI2 (peptidyl arginine deiminase 2) the results were TNF reporter robust z-score 0.55.
For PADI2 (peptidyl arginine deiminase 2), the entry reads TNF reporter robust z-score -0.47.
After knock-down of PADI2 (peptidyl arginine deiminase 2), the record shows TNF reporter robust z-score -0.48.
With knock-down of PADI2 (peptidyl arginine deiminase 2), the record shows TNF reporter robust z-score -0.38.
Depletion of LYRM9 (LYR motif containing 9) came out at: TNF reporter robust z-score -0.5.
After knock-down of LYRM9 (LYR motif containing 9) the results were TNF reporter robust z-score -0.72.
LYRM9 (LYR motif containing 9) scored TNF reporter robust z-score -1.15.
LYRM9 (LYR motif containing 9) showed TNF reporter robust z-score -0.62.
Depletion of KRT222 (keratin 222) gave: TNF reporter robust z-score -1.16.
With knock-down of KRT222 (keratin 222) the results were TNF reporter robust z-score -0.81.
KRT222 (keratin 222) scored TNF reporter robust z-score -0.86.
After knock-down of KRT222 (keratin 222), the screen gave TNF reporter robust z-score -1.56 (active).
Against LDLRAD4 (low density lipoprotein receptor class A domain containing 4), the entry reads TNF reporter robust z-score 0.18.
After knock-down of LDLRAD4 (low density lipoprotein receptor class A domain containing 4) the results were TNF reporter robust z-score 0.99.
Depletion of LDLRAD4 (low density lipoprotein receptor class A domain containing 4) resulted in: TNF reporter robust z-score 1.
LDLRAD4 (low density lipoprotein receptor class A domain containing 4) scored TNF reporter robust z-score 1.15.
Silencing of MBOAT2 (membrane bound glycerophospholipid O-acyltransferase 2) gave: TNF reporter robust z-score 2.74.
MBOAT2 (membrane bound glycerophospholipid O-acyltransferase 2) scored TNF reporter robust z-score 2.75.
MBOAT2 (membrane bound glycerophospholipid O-acyltransferase 2) showed TNF reporter robust z-score 1.32.
For MBOAT2 (membrane bound glycerophospholipid O-acyltransferase 2), the values are TNF reporter robust z-score 0.38.
For PDCL (phosducin like), the entry reads TNF reporter robust z-score 1.64.
PDCL (phosducin like) scored TNF reporter robust z-score 2.3.
PDCL (phosducin like) gave TNF reporter robust z-score 1.73.
For PDCL (phosducin like), the entry reads TNF reporter robust z-score -0.19.
Knock-down of HELB (DNA helicase B) resulted in: TNF reporter robust z-score 0.09.
For HELB (DNA helicase B), the values are TNF reporter robust z-score 0.08.
With knock-down of HELB (DNA helicase B), the record shows TNF reporter robust z-score -0.91.
With knock-down of HELB (DNA helicase B), the record shows TNF reporter robust z-score 1.
Against PSMD4 (proteasome 26S subunit ubiquitin receptor, non-ATPase 4) the deposit lists TNF reporter robust z-score 0.85.
Knock-down of PSMD4 (proteasome 26S subunit ubiquitin receptor, non-ATPase 4) gave: TNF reporter robust z-score 0.63.
Silencing of PSMD4 (proteasome 26S subunit ubiquitin receptor, non-ATPase 4) gave: TNF reporter robust z-score 1.28.
Knock-down of PSMD4 (proteasome 26S subunit ubiquitin receptor, non-ATPase 4) came out at: TNF reporter robust z-score 0.77.
Depletion of POLD3 (DNA polymerase delta 3, accessory subunit) resulted in: TNF reporter robust z-score -1.54 (active).
POLD3 (DNA polymerase delta 3, accessory subunit) scored TNF reporter robust z-score -0.99.
With knock-down of POLD3 (DNA polymerase delta 3, accessory subunit), the screen gave TNF reporter robust z-score -1.32.
Depletion of POLD3 (DNA polymerase delta 3, accessory subunit) came out at: TNF reporter robust z-score -0.75.

Active calls, among the entries above:
CINP (cyclin dependent kinase 2 interacting protein) | TNF reporter robust z-score: -1.74 (active)
CINP (cyclin dependent kinase 2 interacting protein) | TNF reporter robust z-score: -2.02 (active)
CINP (cyclin dependent kinase 2 interacting protein) | TNF reporter robust z-score: -1.89 (active)
CINP (cyclin dependent kinase 2 interacting protein) | TNF reporter robust z-score: -1.94 (active)
KIF17 (kinesin family member 17) | TNF reporter robust z-score: 3.68 (active)
KRT222 (keratin 222) | TNF reporter robust z-score: -1.56 (active)
POLD3 (DNA polymerase delta 3, accessory subunit) | TNF reporter robust z-score: -1.54 (active)
